Data reported in patent publication EP0267629 (dated 1988).
HELM strings list residues between dots; [ac] is acetyl, [am] amide, other brackets name non-standard units.

Assay: Boc solid-phase peptide synthesis; polystyrene carrier with Boc-Lys(ClZ); dicyclohexylcarbodiimide; N-hydroxybenzotriazole active ester for Asn
Details: whole synthesis, scale 0.5 millimole

PEPTIDE1{R.F.V.F.N.K}$$$$V2.0 showed an isolated mass of 211 mg.
